Values of other authors in patent US11008295B2, “Compounds having antiinfective, antitumoral and antifungal activity” (priority 2017, dated 2021).
At least one compound was matched to its structure with a doubt left.

Tests used:
[1] = test system: C. albicans; settings: clinical strain; cited from earlier work
[2] = test system: C. parapsilopsis; settings: C. parapsilosis, clinical strain; cited from earlier work
[3] = test system: C. glabrata; settings: clinical strain; cited from earlier work
[4] = test system: C. tropicalis; settings: clinical strain; cited from earlier work
[5] = test system: C. lusitaniae; settings: clinical strain; cited from earlier work
[6] = test system: C. guilliermondii; settings: C. guillermondii, clinical strain; cited from earlier work
[7] = test system: A. niger; settings: clinical strain; cited from earlier work
[8] = test system: A. fumigatus; settings: clinical strain; cited from earlier work
[9] = test system: A. flavus; settings: clinical strain; cited from earlier work
[10] = test system: A. terreus; settings: clinical strain; cited from earlier work
[11] = test system: C. Krusei; settings: clinical strain; cited from earlier work
Further: key: I = intermediate activity; S = susceptibility; R = Resistance.

## CCC(C)n1ncn(-c2ccc(N3CCN(c4ccc(OCC5COC(Cn6cncn6)(c6ccc(Cl)cc6Cl)O5)cc4)CC3)cc2)c1=O (centres unmarked) [Itraconazole]
[1]
  Characteristics of the strains: susceptibility to the antifungal: R
[2]
  Characteristics of the strains: susceptibility to the antifungal: S
[3]
  Characteristics of the strains: susceptibility to the antifungal: I
[4]
  Characteristics of the strains: susceptibility to the antifungal: I
[5]
  Characteristics of the strains: susceptibility to the antifungal: S
[6]
  Characteristics of the strains: susceptibility to the antifungal: R
[7]
  Characteristics of the strains: susceptibility to the antifungal: I
[8]
  Characteristics of the strains: susceptibility to the antifungal: I
[9]
  Characteristics of the strains: susceptibility to the antifungal: I
[10]
  Characteristics of the strains: susceptibility to the antifungal: I
[11]
  Characteristics of the strains: susceptibility to the antifungal: R
